One assay relates to Escherichia coli. Briefly: Antibacterial activity against Escherichia coli RCMB-010052 assessed as diameter of inhibition zone at 5 mg/ml by diffusion technique. Type of assay: functional.
A further assay concerns Pseudomonas aeruginosa. Put plainly: Antibacterial activity against Pseudomonas aeruginosa RCMB-010043 assessed as diameter of inhibition zone at 5 mg/ml by diffusion technique. The assay is classed as functional.

Take GENTAMICIN: the inhibition zone (IZ) worked out at 19.9 mm in the assay on Escherichia coli and 17.3 mm in the assay on Pseudomonas aeruginosa.

For the origin of these results see ChEMBL document CHEMBL4699440, “Comprehensive review on the anti-bacterial activity of 1,2,3-triazole hybrids” (Eur J Med Chem, 2019).
